Source: PubChem BioAssay AID540336 (Broad Institute, 2011)
Hit rate of the full screen: of about 330,000 compounds, about 520 (0.16%) were called active. The inconclusive results got no clear call from the source; some entries with a clear call stand among them for comparison.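 The calls were made as follows: active = inhibition of at least 50% in every replicate; inconclusive = best replicate reaches 50% inhibition but some replicates fall short; inactive = the rest.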

Sequences of proteins named here, by UniProt entry; tags and fusion partners are left off.
UniProt Q5AAJ8, whole entry, looked up: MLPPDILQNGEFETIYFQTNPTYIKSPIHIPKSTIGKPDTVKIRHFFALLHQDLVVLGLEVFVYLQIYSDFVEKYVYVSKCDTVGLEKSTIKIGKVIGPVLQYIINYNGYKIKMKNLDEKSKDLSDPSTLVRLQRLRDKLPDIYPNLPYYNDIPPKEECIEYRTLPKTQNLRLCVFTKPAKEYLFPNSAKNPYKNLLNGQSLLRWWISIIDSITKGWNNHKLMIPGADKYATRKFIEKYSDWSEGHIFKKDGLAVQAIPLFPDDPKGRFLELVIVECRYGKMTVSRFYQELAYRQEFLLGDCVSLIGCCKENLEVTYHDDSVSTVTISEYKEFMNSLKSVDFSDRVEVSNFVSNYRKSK

The molecules below were run against Histone acetyltransferase RTT109 (Candida albicans (strain SC5314 / ATCC MYA-2876)) (UniProt Q5AAJ8) (assay: Rtt109-Vps75 histone acetyltransferase blockade – biochemical, ThioGlo CoA-SH fluorescence, plate reader, primary screen (AID 540336)). Conditions: purified Rtt109/Vps75, ThioGlo CoA-SH fluorescence, 4 h; at 34.9 µM; stronger effect = higher value.

SMILES	inhibition
CC(NC(=O)COC(=O)CCC(=O)c1ccc(F)cc1)c1ccccc1 (configuration not stated)	inconclusive: 28.7%
Cc1ccccc1Nc1nnc(SCC2CCCCO2)s1 (configuration not stated)	active: 51.3%
OCCN1CCN(Cc2cc(Cl)c3cccnc3c2O)CC1	inactive: -14.7%
COc1ccccc1NS(=O)(=O)c1ccc(C)c(C(=O)NCC2(N(C)C)CCCCC2)c1	inconclusive: 39.9%
CCOc1cccc2sc(N(CCCN(C)C)C(=O)c3ccc(C(=O)c4ccccc4)cc3)nc12	inconclusive: 55.4%
CN(CC(=O)Nc1ccc(N2CCOCC2)cc1)Cc1c(O)ccc2ccccc12	inconclusive: 61%
O=C1N(Cc2cccnc2)C[C@@H]2C[C@@H](c3ccccc3C#Cc3ccccc3)N3CCC[C@@]123	inconclusive: 169%
Cc1ccc(S(=O)(=O)N/N=C\C=C\c2ccccc2)cc1	active: 51.5%
Cc1ccc(C(=O)C[n+]2cc(-c3ccc(C)cc3)n3c2CCCCC3)cc1	inconclusive: 28.2%
O=C(NCc1cccc2[nH]ccc12)C1CCC(=O)N(CCc2ccccc2)C1 (configuration not stated)	inactive: 0.618%
COc1ccc(C(=O)Nc2ccc(NC(=O)Cc3ccccc3)cn2)cc1	inconclusive: 28.2%
CSc1ccc(Cl)c(C(=O)OCC(=O)NCc2ccco2)c1	inactive: 7.91%
O=C(c1ccco1)N1CCN(Cc2cc(=O)c(OCc3ccccc3F)co2)CC1	inactive: -4.04%
COc1cccc(C(=O)Oc2c(Br)cc(Br)cc2/C=N/NC(=O)c2cc(C)[nH]n2)c1	inactive: 3.17%
Cc1cc2c(cc(C(=O)OC(C)C(=O)NCc3ccc(F)cc3)n2C)o1 (configuration not stated)	inconclusive: 24.3%
CCOc1ccc(NC(=O)Cn2nnc(-c3ccc(C(N)=O)cc3)n2)cc1S(=O)(=O)N1CCCC1	inconclusive: 16.7%
Cc1cc(N=Nc2ccc(C)c(N=Nc3cc(C)c(N)cc3N)c2)c(N)cc1N	inconclusive: 28.3%
N#CC1=C(S)N(c2ccccc2)C2(CCCCC2)NC1=O	inconclusive: 92.4%
Cc1ccccc1-n1sc2cc(F)ccc2c1=O	active: 102%
Cc1ccc(S(=O)(=O)NCC(=O)OCC(=O)NC2CCCCC2)cc1	inconclusive: 18.7%
CC(C)c1ccc(Nc2ncccc2C(=O)O)cc1	inconclusive: 32.9%
COc1ccc(CNC(=O)c2nc(S(=O)(=O)Cc3ccccc3)ncc2Cl)cc1	inconclusive: 45.6%

SMILES	inhibition
O=C(/C(=N/N=C/c1ccc(O)c(O)c1O)c1ccccc1)c1ccccc1	active: 78.1%
COc1cccc(N2C(=O)N(c3ccccc3)C3CS(=O)(=O)CC32)c1 (configuration not stated)	inconclusive: 24.5%
CCN(Cc1ccccc1)c1ccc(/C=N/NS(=O)(=O)c2ccc(C)c([N+](=O)[O-])c2)cc1	inconclusive: 36%
Cc1csc(SCC(=O)Nc2ccc3c(c2)OCCO3)n1	inactive: -1.94%
COc1ccc(NC(=O)/C(Cl)=C(/Cl)S(=O)Cc2ccccc2Cl)cn1 (configuration not stated)	inconclusive: 57.6%
CCSc1nnc(NC(=O)C(C)Sc2nc3ccccc3[nH]2)s1 (configuration not stated)	inconclusive: 56.4%
CCOc1cc2[nH]c(=S)n(CCN3CCCCC3CC)c(=O)c2cc1OCC (configuration not stated)	inconclusive: 61.5%
Cc1sc2c3ccsc3ccc2[n+]1C	active: 115%
COc1cccc(NC(=O)c2nc(S(C)(=O)=O)ncc2Cl)c1	inconclusive: 29.9%
C/C(=N\NC(=O)c1ccccc1O)C1C(=O)c2ccccc2C1=O	inconclusive: 54.7%
COc1ccc(OC)c(NC(=O)c2ccccc2SC)c1	inconclusive: 30.9%
COc1cccc2c1C(=O)c1c(O)c3c(c(O)c1C2=O)C[C@](O)(C(C)=O)C[C@H]3O[C@@H]1C[C@@H](N)[C@@H](O)[C@@H](C)O1	inconclusive: 64.3%
O=S(=O)(Nc1ccc(N=Nc2ccccc2)cc1)c1ccccc1	inactive: -1.73%
Nc1ccc2c(c1)OCCOCCOCCOCCOCCO2	inactive: 8.83%
CC(C)c1ccc(/C=C/C(=O)NC(=S)NN2CCOCC2)cc1	inactive: 8.5%
Cc1nnc(NC(=O)CSc2ncnc3c2cnn3-c2ccccc2C)s1	inactive: -6.63%
Cc1cc(-c2nnc3n2N=C(c2ccc(-c4ccccc4)cc2)CS3)n[nH]1	inactive: -0.32%
COc1ccc(S(=O)(=O)/N=C2/C=CC(=O)C(C)=C2C)cc1	inactive: 0.582%
CCC1(C)NC(=O)N(CC(=O)N2CCN(c3cccc(Cl)c3)CC2)C1=O (configuration not stated)	inconclusive: 49.2%
COc1cc(CNc2ccccc2SC)ccc1O	inconclusive: 28.3%
O=C(/C=C/c1ccc(Br)o1)Nc1nccs1	inactive: 8.17%
Cc1nn(CC(=O)Nc2ccc(N3CCOCC3)cc2)c(C)c1Br	inconclusive: 24.4%

SMILES	inhibition
CCOC(=O)C1=C(CS(=O)(=O)c2ccc(F)cc2)NC(=O)NC1c1ccc(O)c(O)c1 (configuration not stated)	inconclusive: 37.8%
CC1CCCN(c2nc3ccsc3c(=O)s2)C1 (configuration not stated)	inactive: -7.84%
CC(C)(C)c1ccc(C(=O)Nc2ccc(F)cc2)s1	inactive: 3.73%
COc1cc(NS(=O)(=O)c2ccc(Nc3nc(-c4cccc([N+](=O)[O-])c4)cs3)cc2)nc(OC)n1	inconclusive: 56.1%
CC(C)(C)CC(C)(C)c1ccc(OCCOCC[N+](C)(C)Cc2ccccc2)cc1	inconclusive: 51.8%
COc1ccc(OCCn2nnc(-c3ccc(Cl)cc3)n2)cc1	inconclusive: 35.6%
CCN1C(=O)CC(C(C)C)N(C2CCCC2)c2nc(Nc3ccc(C(=O)NC4CCN(C)CC4)cc3OC)ncc21 (configuration not stated)	inconclusive: 59.5%
COC(=O)C1=C(C)N(Cc2ccccc2)C(=NCc2cccc(C(F)(F)F)c2)N[C@H]1c1cccc(F)c1	inconclusive: 34.3%
COc1ccc(S(=O)(=O)n2cnc3ccccc32)cc1	inactive: 7.09%
CCN(c1ccc(OC)cc1)S(=O)(=O)c1nnc(NC(=O)COc2ccc(C)cc2)s1	active: 56.6%
CCOC(=O)C1=C(C)Nc2ccccc2S1	active: 51.4%
Cc1cc(N2CCOCC2)nc(-c2ccccc2O)n1	inactive: -3.97%
CN(C)S(=O)(=O)c1cccc(-n2sc3ccccc3c2=O)c1	inconclusive: -16%
Cc1nc2nc(SCC(=O)NCCCN3CCCCCC3)nn2c(C)c1Cc1ccccc1	inconclusive: 41.1%
COc1cc(C2Nc3cccc4cccc(c34)N2)ccc1O	inconclusive: 33.3%
CC1(C)CC(=O)C2=C(C1)OC(N)=C(C#N)C2c1cn(-c2ccccc2)nc1-c1ccccc1 (configuration not stated)	inconclusive: 43.5%
CN1CCN(c2ccc(NC(=S)NC(=O)c3cccc4ccccc34)cc2)CC1	inconclusive: 30.3%
COC(=O)c1sccc1NC(=O)CC1NCCNC1=O (configuration not stated)	inactive: 13.1%
COc1ccccc1NC(=O)CSc1nc2nc(C)cc(C)c2c(=O)[nH]1	inactive: 8.37%
Oc1c(C(c2ccccn2)N2CCCCC2)cc(Cl)c2cccnc12 (configuration not stated)	inactive: 2.23%
O=C(O)c1ccc(-c2ccc(/C=N/Nc3ccc([N+](=O)[O-])cc3)o2)cc1	active: 50%
O=C(Nc1ccc(Cl)cc1C(=O)NCCN1CCOCC1)c1ccco1	inconclusive: 31.1%

SMILES	inhibition
CCOC(=O)Cn1nc(C)n(-c2ccc(Br)cc2)c1=O	inconclusive: 39%
O=C1CCCC(O)=C1C=Nc1ccc(O)cc1	inconclusive: 37.9%
C#CCOCCOCCOCCNc1nc(N2CCN(C(=O)[C@H](CCCCN)n3cc([C@@H](N)CC(C)C)nn3)CC2)nc(N2CCN(C(=O)[C@H](CCCCN)n3cc([C@@H](N)CC(C)C)nn3)CC2)n1	inconclusive: 72.8%
O=C(c1ccco1)N1CCN(c2ncnc3c2[nH]c2ccc(Br)cc23)CC1	inconclusive: 37.2%
C=CCOC(=O)C1=C(C)NC(=O)NC1c1cc(Cl)cc(Cl)c1OC (configuration not stated)	inactive: 1.22%
COc1ccc2c(c1)CCc1c(C(=O)NC3CCCCC3)noc1-2	inactive: 4.62%
COc1cc(/C=C2\SC(=Nc3ccc(N4CCOCC4)cc3)N(C)C2=O)ccc1OC(C)C(=O)O (configuration not stated)	inconclusive: 37.3%
Cc1ccc(S(=O)(=O)Cc2ccc([N+](=O)[O-])cc2)cc1	inactive: 0.383%
O=C(CCCN1C(=O)/C(=C\c2ccccc2)SC1=S)Nc1ccc(O)cc1C(=O)O	inconclusive: 35.8%
Cc1cccc(C)c1NC(=O)c1nc(S(=O)(=O)Cc2ccccc2)ncc1Cl	inconclusive: 84%
COc1ccc(CNC(=O)/C=C/c2ccccc2[N+](=O)[O-])cc1	inactive: 1.73%
N#Cc1sc2nc(-c3cccs3)cc(-c3ccc(F)cc3)c2c1N	inactive: 3.46%
CCOC(=O)c1ccc(N=C2C(=S)N(c3ccc(C(=O)OCC)cc3)C(=N)N2/N=C/c2ccccc2)cc1	active: 63.7%
CCOC1=C/C(=C/c2c(N)n3nc(CC(=O)N4CCCCC4)sc3nc2=O)C=CC1=O	inconclusive: 43%
CN(C)S(=O)(=O)n1cc(/C=C(\NC(=O)c2ccccc2)C(=O)N2CCCC2)c2ccccc21	active: 73.7%
O=C(COc1cccc2c1CCNC2=O)Nc1cccc(C(F)(F)F)c1	inconclusive: 30.8%
CCN1C(=O)CS/C1=N\S(=O)(=O)c1ccc(Cl)cc1	inactive: 8.5%
O=C(O)Cc1coc(-c2ccc(F)cc2)n1	inconclusive: 17.7%
CC(C)CC(=O)NC(=S)Nc1ccc(S(=O)(=O)NC(C)(C)C)cc1	active: 55.1%
O=S(=O)(NCCN1CCOCC1)c1ccc(Cl)c(Cl)c1	inconclusive: 28.1%
Cc1cc(C(C)(C)C)cc(C)c1Cn1c2[n+](c3ccc(C(F)(F)F)cc31)CCCCC2	inconclusive: 31.5%

Quoted at random: three entries already listed.
SMILES	inhibition
N#CC1=C(S)N(c2ccccc2)C2(CCCCC2)NC1=O	inconclusive: 92.4%
CCOC1=C/C(=C/c2c(N)n3nc(CC(=O)N4CCCCC4)sc3nc2=O)C=CC1=O	inconclusive: 43%
COc1cccc(C(=O)Oc2c(Br)cc(Br)cc2/C=N/NC(=O)c2cc(C)[nH]n2)c1	inactive: 3.17%
